{"source": "PubChem BioAssay AID504467", "about": "(National Center for Advancing Translational Sciences (NCATS), 2011)", "note": "Out of some 330,000 compounds screened, about 7,700 (2.3%) were called active. Inconclusive means that the source gave no clear call. Such entries were picked first, then a sample of the others. The call rests on the fitted dose curve; in most records, active means well fitted inhibition curve with a large enough effect; inconclusive means small, poorly fitted or top-dose-only effect, or effect the other way; inactive means flat fitted curve, though single readings scatter. Potencies of inconclusive entries are doubtful fits and often do not repeat. On the % scale 0 is the no-effect control and ±100 the full control effect; potency means the concentration at half of the fitted maximal effect."}
{"assay": "qHTS screen for small molecules that inhibit ELG1-dependent DNA repair in human embryonic kidney (HEK293T) cells expressing luciferase-tagged ELG1; further: nearly all actives have a fitted effect of over 55% in size", "conditions": "HEK293T ELG1-luciferase reporter, luminescence, 16 h, DNA damage induced by 5-fluorouridine; activity change, negative = inhibition: at 46.1 µM (top of the series)", "how_it_was_run": "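Luminescence from the luciferase reporter, measured 30 min after ONE-Glo reagent at room temperature, was the read-out. Beforehand, 2,000 cells per well were exposed for 16 hr at 37 °C to 5-fluorouridine together with compound or vehicle.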"}
{"smiles": "Cc1ccccc1C(=O)NCCN1CCOCC1", "Potency": "inconclusive: 16.4 µM [activator, partial curve, poor fit]"}
{"smiles": "FC(F)(F)c1nc2ncc(Cl)cc2[nH]1", "Potency": "inconclusive: 18.4 µM [inhibitor, single point]"}
{"smiles": "Cc1ccc(NC(=O)c2ccc(N3CCOCC3)c([N+](=O)[O-])c2)cc1S(=O)(=O)N1CCOCC1", "Potency": "active: 20.6 µM"}
{"smiles": "Cc1nc(Sc2nnnn2-c2ccccc2)c(C#N)c(C)c1C", "activity change, negative = inhibition": "inactive: -0.278%"}
{"smiles": "O=S(=O)(NCCc1csc(-c2cccnc2)n1)c1cccs1", "Potency": "inconclusive: 14.6 µM [inhibitor, partial curve]"}
{"smiles": "COc1cc(Nc2nc3ccc(Cl)cc3n3cnnc23)cc(OC)c1OC", "Potency": "inconclusive: 6.51 µM [inhibitor, single point]"}
{"smiles": "CN1C(=O)[C@@H]2[C@@H]3C[C@@H]([C@H]4ON=C(c5ccc(Cl)cc5Cl)[C@@H]34)[C@@H]2C1=O", "Potency": "inconclusive: 0.411 µM [inhibitor, full curve, poor fit]"}
{"smiles": "CCc1ccc(NC(=O)c2cnn(-c3ccccc3)c2C)cc1", "Potency": "inconclusive: 1.46 µM [activator, full curve]"}
{"smiles": "Cc1cc(C)c2sc(N(CCCN(C)C)C(=O)c3ccc(S(=O)(=O)N4CCc5ccccc5C4)cc3)nc2c1", "Potency": "active: 13 µM"}
{"smiles": "COC(=O)C1=CNC=C(C(=O)OC)C1c1ccccc1Cl", "activity change, negative = inhibition": "inactive: -8.84%"}
{"smiles": "COc1cc(-c2c(-c3cc(OC)c(OC)c(OC)c3)noc2C)ccc1F", "Potency": "inconclusive: 1.16 µM [activator, partial curve, poor fit]"}
{"smiles": "Cc1nc(C)c(C(=O)N/N=C/c2cn(C)c3ccccc23)s1", "Potency": "inconclusive: 18.4 µM [inhibitor, single point]"}
{"smiles": "CCCCCCC(=O)c1c(C)[nH]c(C(=O)OCC)c1C", "Potency": "inconclusive: 4.61 µM [activator, partial curve]"}
{"smiles": "COc1cc(/C=N\\NC(=O)C2COc3ccccc3O2)cc(OC)c1O", "note": "(stereo not given)", "activity change, negative = inhibition": "inactive: -0.297%"}
{"smiles": "CC(=O)c1cc2c(cc1NC(=O)CN1CCC(Cc3ccccc3)CC1)OCO2", "Potency": "inconclusive: 29.1 µM [inhibitor, single point]"}
{"smiles": "CCN(C(=O)COC(=O)c1cccnc1)c1cccc2ccccc12", "activity change, negative = inhibition": "inactive: -0.593%"}
{"smiles": "O=S(=O)(c1ccc2ccccc2c1)N1CCN(C(=S)Nc2ccccc2F)CC1", "Potency": "inconclusive: 10.3 µM [inhibitor, partial curve]"}
{"smiles": "CCN(CC)CCCN(Cc1cc2cc3c(cc2[nH]c1=O)OCO3)C(=S)Nc1ccc(OC)cc1", "activity change, negative = inhibition": "inactive: -2.38%"}
{"smiles": "O=C(COc1ccc2ccccc2c1)Nc1nccs1", "Potency": "inconclusive: 1.83 µM [activator, partial curve]"}
{"smiles": "COC(=O)c1ccc2c(=O)n(Cc3ccc4c(c3)OCO4)c(=S)[nH]c2c1", "activity change, negative = inhibition": "inactive: 26.3%"}
{"smiles": "O=S(=O)(/N=C(/Nc1cccnc1)c1ccccc1)c1ccc(F)cc1F", "activity change, negative = inhibition": "inactive: 15.6%"}
{"smiles": "CC(=O)C1=C(O)C(=O)N(Cc2ccco2)C1c1ccc(F)cc1", "note": "(stereo not given)", "activity change, negative = inhibition": "inactive: 7.13%"}
{"smiles": "O=C(COC(=O)c1cccs1)c1ccc2c(c1)OCCO2", "Potency": "inconclusive: 5.17 µM [activator, partial curve]"}
{"smiles": "Cc1ccc(C(=O)OC(C)C(=O)NC2CCCCC2C)cc1S(=O)(=O)N1CCCCC1", "note": "(stereo not given)", "Potency": "inconclusive: 18.3 µM [inhibitor, single point]"}
{"smiles": "CCn1c(SC)nc2c(c1=O)SC(C)C2", "note": "(stereo not given)", "Potency": "inconclusive: 5.17 µM [activator, partial curve, poor fit]"}
{"smiles": "O=c1c(Cl)c(Cl)cnn1-c1ccccc1", "Potency": "active: 18.4 µM"}
{"smiles": "S=c1[nH]nc(-c2ccccn2)n1/N=C/c1ccc(-c2ccccc2Cl)o1", "Potency": "inconclusive: 18.3 µM [activator, single point]"}
{"smiles": "O=C(c1ccco1)N1CCn2c1nc1ccccc12", "Potency": "inconclusive: 18.4 µM [activator, partial curve]"}
{"smiles": "C[C@H](Cc1ccccc1)Nc1ncnc2c1ncn2[C@@H]1O[C@H](CO)[C@@H](O)[C@H]1O", "Potency": "inconclusive: 4.47 µM [activator, partial curve, poor fit]"}
{"smiles": "O=C(OCc1ccccc1F)c1ccc2c(c1)OCCO2", "Potency": "inconclusive: 20.6 µM [activator, partial curve]"}
{"smiles": "O=C(NNc1ccc(-c2csnn2)cc1)c1cc(Cl)cc(Cl)c1", "Potency": "inconclusive: 2.59 µM [inhibitor, full curve]"}
{"smiles": "NC(=O)[C@@H]1CCCN1Cc1nc(-c2ccc(C(F)(F)F)cc2)no1", "activity change, negative = inhibition": "inactive: -4.26%"}
{"smiles": "Cc1[nH]nc(N=CC2=C(O)CC(C)(C)CC2=O)c1-c1ccc(Cl)cc1", "activity change, negative = inhibition": "inactive: 10.3%"}
{"smiles": "O=C(Nc1cccc(O)c1)c1noc2c1CCc1ccccc1-2", "Potency": "inconclusive: 1.16 µM [activator, full curve]"}
{"smiles": "CCN(CC)C(=O)CSc1nc2ncc(Br)cc2[nH]1", "activity change, negative = inhibition": "inactive: 4.45%"}
{"smiles": "Cc1ccc2nc(N(CCCN(C)C)C(=O)c3ccc4c(c3)CCCC4)sc2c1", "activity change, negative = inhibition": "inactive: -16.6%"}
{"smiles": "C1CSC2(N1)C1CC3CC(C1)CC2C3", "note": "(stereo not given)", "activity change, negative = inhibition": "inactive: 19.2%"}
{"smiles": "COc1ccc(C(CCN2CCCC2)c2c(O)cc(OC)cc2OC)cc1", "note": "(stereo not given)", "activity change, negative = inhibition": "inactive: 12.4%"}
{"smiles": "COc1ccccc1Cn1c(C(C)C)nc2ccccc21", "Potency": "inconclusive: 7.3 µM [inhibitor, partial curve]"}
{"smiles": "S=C1SCN(Cc2cccnc2)CN1Cc1cccnc1", "Potency": "active: 23.1 µM"}
{"smiles": "O=C(NCc1ccco1)C(c1ccccc1)N(Cc1cccnc1)C(=O)Cn1nnc2ccccc21", "note": "(stereo not given)", "activity change, negative = inhibition": "inactive: -9.89%"}
{"smiles": "CC(C)(C)OC(=O)NCCCC[C@H](NC(=O)c1[nH]cnc1C(=O)N[C@@H](Cc1ccccc1)C(=O)OC(C)(C)C)C(=O)OC(C)(C)C", "Potency": "inconclusive: 29.1 µM [inhibitor, single point]"}
{"smiles": "Cc1cc(C)n(-c2nc3ccccc3c(=O)n2OCc2ccc(F)cc2)n1", "Potency": "inconclusive: 23.1 µM [inhibitor, single point]"}
{"smiles": "O=C(Nc1ccccc1)c1nnn(Cc2ccccc2)c1NC(=O)C(F)(F)F", "Potency": "inconclusive: 29.1 µM [activator, single point]"}
{"smiles": "Cc1ccc(NS(=O)(=O)c2ccc(NC(=O)c3cccc(NC(=O)C(C)C)c3)cc2)cc1", "Potency": "inconclusive: 29.1 µM [inhibitor, single point]"}
{"smiles": "O=C(N/N=C/c1ccco1)C1CCCC1", "activity change, negative = inhibition": "inactive: 20.7%"}
{"smiles": "CN(C)/C=C1\\SC(=S)N(c2ccc(Br)cc2)C1=O", "Potency": "inconclusive: 20.6 µM [activator, partial curve]"}
{"smiles": "N#C/C(=C(/O)CCl)c1nnc2n1CCCCC2", "activity change, negative = inhibition": "inactive: 3.88%"}
{"smiles": "COC(=O)c1cccc(NC(=O)NC(=O)c2ccccc2Cl)c1", "Potency": "inconclusive: 1.03 µM [activator, full curve]"}
{"smiles": "COc1ccc(S(=O)(=O)N2CCCCCC2)cc1NC(=O)Cc1cc(OC)c(OC)c(OC)c1", "Potency": "inconclusive: 20.6 µM [inhibitor, partial curve]"}
{"smiles": "COc1ccc(Cl)cc1NC(=O)C/C(C)=N/NC(=O)c1ccccc1[N+](=O)[O-]", "activity change, negative = inhibition": "inactive: -0.562%"}
{"smiles": "O=C(Nc1ccc(N2CCN(C(=O)c3ccco3)CC2)cc1)c1cccc(F)c1", "Potency": "inconclusive: 23.1 µM [inhibitor, single point]"}
{"smiles": "O=C(NCc1ccc(Cl)cc1)c1ccc(OCC2CCCO2)cc1", "note": "(stereo not given)", "Potency": "inconclusive: 16.4 µM [activator, partial curve, poor fit]"}
{"smiles": "Cc1ccc(-n2nnnc2SCn2nnc3ccccc3c2=O)cc1", "Potency": "inconclusive: 16.4 µM [activator, partial curve]"}
{"smiles": "Cc1cccc(NC(=S)NNC(=O)c2ccccc2Br)c1", "Potency": "inconclusive: 16.4 µM [activator, partial curve]"}
{"smiles": "CC1Cc2ccccc2N1C(=O)CSc1nnc(-c2ccccc2)c(-c2ccccc2)n1", "note": "(stereo not given)", "Potency": "inconclusive: 29.1 µM [inhibitor, single point]"}
{"smiles": "COc1ccccc1N1CCN(C(c2ccc(Cl)cc2)c2nnnn2C(C)(C)C)CC1", "note": "(stereo not given)", "Potency": "inconclusive: 18.4 µM [inhibitor, single point]"}
{"smiles": "Cc1ccc2nc(NC(=O)c3cccc(-c4cc5ccccc5oc4=O)c3)sc2c1", "Potency": "inconclusive: 23.1 µM [activator, single point]"}
{"smiles": "CC(=O)N1CCN(C2=NC(=O)C(=C3CCCCC3)S2)CC1", "Potency": "inconclusive: 20.6 µM [activator, single point]"}
{"smiles": "Cn1c(SCC(=O)Nc2ccc(N3CCOCC3)cc2)nnc1-c1ccccc1", "Potency": "inconclusive: 20.6 µM [activator, single point]"}
{"smiles": "O=C(c1ccccc1)N(Cc1nc2ccccc2c(=O)[nH]1)C1CCCC1", "activity change, negative = inhibition": "inactive: -5.82%"}
{"smiles": "Cc1ccccc1S(=O)(=O)N1CCN(C)CC1", "activity change, negative = inhibition": "inactive: -10.8%"}
{"smiles": "COc1cc(S(=O)(=O)Nc2ccc(C)cc2)ccc1NC(=O)c1ccncc1", "Potency": "inconclusive: 29.1 µM [inhibitor, single point]"}
{"smiles": "COc1cc(N=CC2=C(O)c3ccccc3C2=O)cc(OC)c1", "Potency": "inconclusive: 7.31 µM [activator, partial curve]"}
{"smiles": "CCOC(=O)c1c(C)[nH]c(C(=O)CSc2ccc(Cl)cc2)c1C", "Potency": "inconclusive: 14.6 µM [activator, partial curve]"}
{"smiles": "C=CCC[C@@H](Cc1ccc(F)cc1)C(=O)OC[C@@H](Cc1c[nH]c2ccccc12)NC(=O)[C@H](CC=C)CC(=O)N[C@H](CO)Cc1ccccc1", "activity change, negative = inhibition": "inactive: 12.4%"}
{"smiles": "CCC(=O)N1CCc2cc(OC)c(OC)cc2C1COc1ccccc1OC", "note": "(stereo not given)", "Potency": "inconclusive: 25.9 µM [inhibitor, partial curve, poor fit]"}
{"smiles": "Cc1ccc(S(=O)(=O)Nc2ccccc2C(O)c2ccccc2)cc1", "note": "(stereo not given)", "Potency": "inconclusive: 20.6 µM [inhibitor, partial curve]"}
{"smiles": "CCCn1nc(C(=O)NNC(=O)c2cccc(C)c2)c2ccccc2c1=O", "Potency": "inconclusive: 20.6 µM [inhibitor, partial curve, poor fit]"}
{"smiles": "COc1ccc(/C=N/NC(=O)C2COc3ccccc3O2)cc1OC", "note": "(stereo not given)", "activity change, negative = inhibition": "inactive: 4.22%"}
